This is one part of the list.
What was measured:
Assay in all cases: log2 fold change, soluble protein after heating vs DMSO (PISA); higher = thermal stabilisation; K562 lysate, 10 uM; active = over 0.2 and 3.5 SD of the protein, either way, in both replicates (recomputed)
alvocidib = compound: CN1CC[C@H](c2c(O)cc(O)c3c(=O)cc(-c4ccccc4Cl)oc23)[C@H](O)C1 [alvocidib]
Method in brief: (§1)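 Following dounce homogenisation of K562 pellets in PBS pH 7.4 with 1 mM MgCl2, crude extract at 1 mg/mL protein was incubated for 30 min with 10 μM compound. Aliquots were then heated for 3 min over 48°C-58°C and pooled, NP-40 was added to 0.5% at 4°C, and soluble protein was recovered as the supernatant at 21,000xg for 90 min. Channel-sum-equalised TMTpro 16plex LC-MS/MS quantified this protein. Each value, from duplicates, is a log-two fold change in thermal stability relative to solvent controls.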

Amino acid sequences for entries named in this document (tags omitted). A change or cut given only in a name is not applied to a line headed by its entry.
UniProt Q8WTR2: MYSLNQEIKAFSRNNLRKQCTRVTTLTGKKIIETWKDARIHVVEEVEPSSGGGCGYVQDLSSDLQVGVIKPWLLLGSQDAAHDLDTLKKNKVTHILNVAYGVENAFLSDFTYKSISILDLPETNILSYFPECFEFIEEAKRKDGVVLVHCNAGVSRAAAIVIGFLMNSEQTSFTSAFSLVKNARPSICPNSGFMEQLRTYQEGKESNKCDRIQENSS
UniProt O95147: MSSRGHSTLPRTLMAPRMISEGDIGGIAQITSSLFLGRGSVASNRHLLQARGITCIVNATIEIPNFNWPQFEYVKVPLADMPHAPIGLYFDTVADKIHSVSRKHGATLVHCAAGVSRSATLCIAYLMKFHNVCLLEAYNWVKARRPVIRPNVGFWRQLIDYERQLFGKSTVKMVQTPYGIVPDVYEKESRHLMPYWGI
UniProt Q8NBA8: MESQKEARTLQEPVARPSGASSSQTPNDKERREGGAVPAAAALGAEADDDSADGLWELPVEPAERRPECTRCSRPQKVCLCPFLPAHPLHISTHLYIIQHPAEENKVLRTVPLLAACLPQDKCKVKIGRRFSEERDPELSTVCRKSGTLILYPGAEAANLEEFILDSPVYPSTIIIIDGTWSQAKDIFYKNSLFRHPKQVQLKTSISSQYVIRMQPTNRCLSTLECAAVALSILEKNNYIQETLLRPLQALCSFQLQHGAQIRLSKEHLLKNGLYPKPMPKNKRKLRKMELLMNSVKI
UniProt O14576, whole entry, looked up: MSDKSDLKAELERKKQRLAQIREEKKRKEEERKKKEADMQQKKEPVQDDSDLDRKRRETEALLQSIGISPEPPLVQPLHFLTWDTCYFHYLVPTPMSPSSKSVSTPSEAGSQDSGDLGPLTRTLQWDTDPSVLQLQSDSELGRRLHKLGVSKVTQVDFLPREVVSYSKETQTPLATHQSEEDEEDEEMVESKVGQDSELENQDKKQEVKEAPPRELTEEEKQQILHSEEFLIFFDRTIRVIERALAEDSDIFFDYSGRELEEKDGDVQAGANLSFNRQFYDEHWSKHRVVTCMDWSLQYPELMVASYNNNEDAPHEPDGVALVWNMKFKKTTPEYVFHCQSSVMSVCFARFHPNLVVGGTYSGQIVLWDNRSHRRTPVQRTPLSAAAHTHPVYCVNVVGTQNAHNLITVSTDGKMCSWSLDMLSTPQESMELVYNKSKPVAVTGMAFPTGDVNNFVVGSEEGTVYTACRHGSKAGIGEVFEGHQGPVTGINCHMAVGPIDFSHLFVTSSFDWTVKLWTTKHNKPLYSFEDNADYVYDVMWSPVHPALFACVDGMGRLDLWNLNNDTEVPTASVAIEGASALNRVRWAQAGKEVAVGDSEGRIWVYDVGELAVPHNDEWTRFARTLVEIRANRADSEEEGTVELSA
UniProt Q9UII6: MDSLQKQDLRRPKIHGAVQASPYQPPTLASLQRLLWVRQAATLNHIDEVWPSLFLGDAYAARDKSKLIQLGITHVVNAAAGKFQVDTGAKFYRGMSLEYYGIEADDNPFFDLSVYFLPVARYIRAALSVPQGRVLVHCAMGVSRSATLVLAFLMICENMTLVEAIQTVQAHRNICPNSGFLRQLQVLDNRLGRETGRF
UniProt Q86Y13: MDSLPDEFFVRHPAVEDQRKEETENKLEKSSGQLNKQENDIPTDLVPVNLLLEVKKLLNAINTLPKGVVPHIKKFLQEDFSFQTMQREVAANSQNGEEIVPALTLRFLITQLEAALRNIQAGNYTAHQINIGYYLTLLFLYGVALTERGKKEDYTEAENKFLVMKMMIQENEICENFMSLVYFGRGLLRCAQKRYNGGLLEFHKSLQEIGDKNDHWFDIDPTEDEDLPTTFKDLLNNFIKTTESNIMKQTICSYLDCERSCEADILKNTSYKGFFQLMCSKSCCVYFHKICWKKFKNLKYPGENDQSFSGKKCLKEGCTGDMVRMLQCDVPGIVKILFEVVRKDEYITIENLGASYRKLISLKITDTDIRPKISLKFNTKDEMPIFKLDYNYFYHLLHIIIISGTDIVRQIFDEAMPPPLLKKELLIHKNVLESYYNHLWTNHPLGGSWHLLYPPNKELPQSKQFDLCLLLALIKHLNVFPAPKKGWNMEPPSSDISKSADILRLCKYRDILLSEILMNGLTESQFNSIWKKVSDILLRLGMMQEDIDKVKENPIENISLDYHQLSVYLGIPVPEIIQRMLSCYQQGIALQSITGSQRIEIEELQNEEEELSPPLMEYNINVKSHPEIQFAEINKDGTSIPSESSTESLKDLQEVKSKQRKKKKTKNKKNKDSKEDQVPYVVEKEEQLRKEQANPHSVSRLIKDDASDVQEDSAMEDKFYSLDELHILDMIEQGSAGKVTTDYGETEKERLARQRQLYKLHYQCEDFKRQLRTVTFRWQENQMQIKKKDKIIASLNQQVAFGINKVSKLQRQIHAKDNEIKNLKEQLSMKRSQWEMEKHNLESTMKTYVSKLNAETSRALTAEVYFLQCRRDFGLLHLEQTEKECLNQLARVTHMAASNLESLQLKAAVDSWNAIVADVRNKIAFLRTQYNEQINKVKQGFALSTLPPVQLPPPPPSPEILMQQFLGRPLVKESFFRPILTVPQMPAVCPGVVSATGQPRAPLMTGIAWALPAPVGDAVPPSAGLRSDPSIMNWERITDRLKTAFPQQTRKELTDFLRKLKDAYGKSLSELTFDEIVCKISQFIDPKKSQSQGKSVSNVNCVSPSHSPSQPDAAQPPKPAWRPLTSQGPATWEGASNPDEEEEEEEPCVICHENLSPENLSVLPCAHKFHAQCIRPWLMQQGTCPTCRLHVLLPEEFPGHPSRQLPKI
UniProt Q8TCX1: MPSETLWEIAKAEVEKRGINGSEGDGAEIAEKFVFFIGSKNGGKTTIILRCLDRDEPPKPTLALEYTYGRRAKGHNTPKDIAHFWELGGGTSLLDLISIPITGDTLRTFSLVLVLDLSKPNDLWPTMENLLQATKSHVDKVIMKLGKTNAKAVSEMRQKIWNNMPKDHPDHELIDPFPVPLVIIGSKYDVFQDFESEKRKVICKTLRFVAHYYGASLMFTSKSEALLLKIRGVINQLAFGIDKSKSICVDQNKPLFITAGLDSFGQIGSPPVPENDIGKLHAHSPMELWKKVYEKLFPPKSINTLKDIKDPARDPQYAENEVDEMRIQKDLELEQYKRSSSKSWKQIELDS
UniProt Q7L9B9: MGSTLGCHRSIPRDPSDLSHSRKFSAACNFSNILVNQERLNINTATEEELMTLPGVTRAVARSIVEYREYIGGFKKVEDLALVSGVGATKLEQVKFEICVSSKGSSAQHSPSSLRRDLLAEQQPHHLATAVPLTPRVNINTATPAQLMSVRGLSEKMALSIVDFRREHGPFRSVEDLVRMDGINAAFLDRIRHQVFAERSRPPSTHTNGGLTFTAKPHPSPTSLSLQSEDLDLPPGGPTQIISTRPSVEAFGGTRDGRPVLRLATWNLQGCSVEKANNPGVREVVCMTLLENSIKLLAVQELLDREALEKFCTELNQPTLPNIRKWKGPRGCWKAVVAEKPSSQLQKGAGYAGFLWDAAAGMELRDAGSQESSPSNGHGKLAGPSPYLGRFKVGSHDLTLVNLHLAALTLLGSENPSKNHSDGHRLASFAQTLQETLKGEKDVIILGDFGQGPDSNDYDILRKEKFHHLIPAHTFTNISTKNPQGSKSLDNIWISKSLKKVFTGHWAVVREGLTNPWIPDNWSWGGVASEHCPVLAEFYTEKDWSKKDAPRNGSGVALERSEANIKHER
UniProt Q16610: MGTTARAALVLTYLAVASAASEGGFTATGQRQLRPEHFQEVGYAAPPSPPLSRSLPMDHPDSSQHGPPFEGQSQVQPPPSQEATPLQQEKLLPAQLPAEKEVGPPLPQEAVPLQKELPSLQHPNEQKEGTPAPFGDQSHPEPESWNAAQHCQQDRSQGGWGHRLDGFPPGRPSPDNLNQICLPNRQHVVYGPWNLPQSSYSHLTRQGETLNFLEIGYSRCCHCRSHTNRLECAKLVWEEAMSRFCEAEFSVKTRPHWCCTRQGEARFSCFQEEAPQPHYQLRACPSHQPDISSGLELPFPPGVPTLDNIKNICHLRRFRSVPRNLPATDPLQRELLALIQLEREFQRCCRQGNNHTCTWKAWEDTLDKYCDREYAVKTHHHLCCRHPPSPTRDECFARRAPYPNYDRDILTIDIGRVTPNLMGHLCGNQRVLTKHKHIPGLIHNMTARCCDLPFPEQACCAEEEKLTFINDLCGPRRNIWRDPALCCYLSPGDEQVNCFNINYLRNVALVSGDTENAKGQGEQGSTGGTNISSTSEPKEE
UniProt Q96FX2: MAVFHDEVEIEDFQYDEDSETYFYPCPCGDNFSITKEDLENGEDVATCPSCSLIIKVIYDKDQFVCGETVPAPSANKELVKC
UniProt Q8TD84: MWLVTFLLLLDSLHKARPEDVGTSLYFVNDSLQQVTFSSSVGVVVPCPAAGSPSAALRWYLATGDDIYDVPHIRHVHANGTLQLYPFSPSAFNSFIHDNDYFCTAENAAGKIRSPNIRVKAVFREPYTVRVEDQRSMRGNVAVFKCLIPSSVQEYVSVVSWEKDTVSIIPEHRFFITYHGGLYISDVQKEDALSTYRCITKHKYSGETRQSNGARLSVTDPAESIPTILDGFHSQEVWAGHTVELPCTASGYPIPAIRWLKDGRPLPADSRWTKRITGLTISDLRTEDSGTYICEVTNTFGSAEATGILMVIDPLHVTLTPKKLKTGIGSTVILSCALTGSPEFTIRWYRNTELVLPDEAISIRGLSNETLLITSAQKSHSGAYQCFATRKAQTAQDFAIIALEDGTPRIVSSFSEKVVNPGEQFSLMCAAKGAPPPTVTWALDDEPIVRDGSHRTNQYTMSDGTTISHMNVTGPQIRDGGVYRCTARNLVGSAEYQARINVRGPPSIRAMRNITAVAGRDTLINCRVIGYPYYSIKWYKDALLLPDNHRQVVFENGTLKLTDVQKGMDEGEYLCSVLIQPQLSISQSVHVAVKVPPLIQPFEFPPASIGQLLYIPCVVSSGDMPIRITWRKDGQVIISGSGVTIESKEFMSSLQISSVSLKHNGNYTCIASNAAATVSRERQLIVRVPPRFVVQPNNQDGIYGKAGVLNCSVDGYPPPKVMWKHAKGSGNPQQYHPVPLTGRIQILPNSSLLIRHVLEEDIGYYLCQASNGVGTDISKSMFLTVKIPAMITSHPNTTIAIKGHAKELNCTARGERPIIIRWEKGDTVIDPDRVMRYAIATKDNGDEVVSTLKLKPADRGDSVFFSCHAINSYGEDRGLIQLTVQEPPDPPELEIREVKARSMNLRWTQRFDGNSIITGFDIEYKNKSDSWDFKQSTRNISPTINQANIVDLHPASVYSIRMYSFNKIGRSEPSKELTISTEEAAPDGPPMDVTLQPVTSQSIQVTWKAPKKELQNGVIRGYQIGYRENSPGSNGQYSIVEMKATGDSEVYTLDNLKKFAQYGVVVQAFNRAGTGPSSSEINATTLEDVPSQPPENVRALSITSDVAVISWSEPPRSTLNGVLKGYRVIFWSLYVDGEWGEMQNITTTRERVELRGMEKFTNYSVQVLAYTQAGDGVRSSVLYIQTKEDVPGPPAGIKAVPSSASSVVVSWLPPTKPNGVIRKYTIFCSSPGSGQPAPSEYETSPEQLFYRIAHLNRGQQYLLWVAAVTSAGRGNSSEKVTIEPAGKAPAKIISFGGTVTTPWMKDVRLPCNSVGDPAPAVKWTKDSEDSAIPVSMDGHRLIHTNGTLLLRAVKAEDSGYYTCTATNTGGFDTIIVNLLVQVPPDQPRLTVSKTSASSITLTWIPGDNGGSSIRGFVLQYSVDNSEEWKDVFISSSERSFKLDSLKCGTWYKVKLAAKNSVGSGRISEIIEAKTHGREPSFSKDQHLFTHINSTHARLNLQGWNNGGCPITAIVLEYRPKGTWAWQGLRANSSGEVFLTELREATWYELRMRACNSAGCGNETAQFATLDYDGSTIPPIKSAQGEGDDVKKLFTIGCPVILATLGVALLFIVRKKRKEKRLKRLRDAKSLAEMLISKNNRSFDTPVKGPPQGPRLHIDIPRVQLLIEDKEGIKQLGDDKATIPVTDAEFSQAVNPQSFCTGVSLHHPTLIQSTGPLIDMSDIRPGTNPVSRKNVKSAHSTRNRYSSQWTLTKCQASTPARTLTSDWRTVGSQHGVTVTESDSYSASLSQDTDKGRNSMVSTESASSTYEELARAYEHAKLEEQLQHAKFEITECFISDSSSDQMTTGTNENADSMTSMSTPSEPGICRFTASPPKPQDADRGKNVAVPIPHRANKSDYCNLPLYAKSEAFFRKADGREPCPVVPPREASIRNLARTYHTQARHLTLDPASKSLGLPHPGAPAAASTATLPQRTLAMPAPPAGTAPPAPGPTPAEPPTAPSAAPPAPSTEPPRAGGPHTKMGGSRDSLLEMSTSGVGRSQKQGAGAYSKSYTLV
UniProt Q8WVE0: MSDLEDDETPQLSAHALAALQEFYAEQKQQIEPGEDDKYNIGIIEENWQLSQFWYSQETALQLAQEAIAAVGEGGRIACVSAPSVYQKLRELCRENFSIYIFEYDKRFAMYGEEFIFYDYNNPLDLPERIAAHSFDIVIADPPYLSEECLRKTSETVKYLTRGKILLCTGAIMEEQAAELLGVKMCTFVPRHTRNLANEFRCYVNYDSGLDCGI

[1] = compound: C[C@H](C1=CC=C(C=C1)C(=O)NC2=C3C=CNC3=NC=C2)N
Method in brief: as §1

gandotinib = compound: Cc1cc(Nc2cc(CN3CCOCC3)c3nc(C)c(Cc4ccc(Cl)cc4F)n3n2)n[nH]1 [gandotinib]
Method in brief: as §1

[2] = compound: Cc1cccc(CC(=O)N2CCc3c2ccc(-c2cn(C)c4ncnc(N)c24)c3F)n1
Method in brief: as §1

Tubastatin A = compound: CN1CCc2c(c3ccccc3n2Cc2ccc(C(=O)NO)cc2)C1 [Tubastatin A]
Method in brief: as §1

[3] = compound: CNC(=O)C1=CC=CC=C1NC2=NC(=NC=C2Cl)NC3=C(C=C(C=C3)N4CCOCC4)OC
Method in brief: as §1

alisertib = compound: COc1cc(Nc2ncc3c(n2)-c2ccc(Cl)cc2C(c2c(F)cccc2OC)=NC3)ccc1C(=O)O [alisertib]
Method in brief: as §1

[4] = compound: COc1cc2nc(-c3cc(F)ccc3O)nc(N[C@@H]3CNC[C@H]3C(C)(C)O)c2cc1OC
Method in brief: as §1

gefitinib = compound: COc1cc2ncnc(Nc3ccc(F)c(Cl)c3)c2cc1OCCCN1CCOCC1 [gefitinib]
Method in brief: as §1

lapatinib = compound: CS(=O)(=O)CCNCc1ccc(-c2ccc3ncnc(Nc4ccc(OCc5cccc(F)c5)c(Cl)c4)c3c2)o1 [lapatinib]
Method in brief: as §1

pictilisib = compound: CS(=O)(=O)N1CCN(Cc2cc3nc(-c4cccc5[nH]ncc45)nc(N4CCOCC4)c3s2)CC1 [pictilisib]
Method in brief: as §1

crizotinib = compound: C[C@@H](Oc1cc(-c2cnn(C3CCNCC3)c2)cnc1N)c1c(Cl)ccc(F)c1Cl [crizotinib]
Method in brief: as §1

doramapimod = compound: Cc1ccc(-n2nc(C(C)(C)C)cc2NC(=O)Nc2ccc(OCCN3CCOCC3)c3ccccc23)cc1 [doramapimod]
Method in brief: as §1

bafetinib = compound: Cc1ccc(NC(=O)c2ccc(CN3CC[C@H](N(C)C)C3)c(C(F)(F)F)c2)cc1Nc1nccc(-c2cncnc2)n1 [bafetinib]
Method in brief: as §1

defactinib = compound: CNC(=O)c1ccc(Nc2ncc(C(F)(F)F)c(NCc3nccnc3N(C)S(C)(=O)=O)n2)cc1 [defactinib]
Method in brief: as §1

[5] = compound: CNc1nc(-c2ccc3c(N)n[nH]c3c2)cc(N2C[C@@H](C(=O)NC3CCCCC3)CC[C@H]2C)n1
Method in brief: as §1

encorafenib = compound: COC(=O)N[C@@H](C)CNc1nccc(-c2cn(C(C)C)nc2-c2cc(Cl)cc(NS(C)(=O)=O)c2F)n1 [encorafenib]
Method in brief: as §1

[6] = compound: COC(=O)[C@H](CCSC)NC(=O)C1=C(C=C(C=C1)NC[C@H](CS)N)C2=CC=CC=C2
Method in brief: as §1

duvelisib = compound: C[C@H](Nc1ncnc2nc[nH]c12)c1cc2cccc(Cl)c2c(=O)n1-c1ccccc1 [duvelisib]
Method in brief: as §1

tozasertib = compound: Cc1cc(Nc2cc(N3CCN(C)CC3)nc(Sc3ccc(NC(=O)C4CC4)cc3)n2)n[nH]1 [tozasertib]
Method in brief: as §1

Measured: log2 fold change

DUSP12 (UniProt V9GYV5)
inactive: alvocidib 0.019 | [1] -0.085 | gandotinib 0.047 | [2] 0.152

DUSP19 (UniProt Q8WTR2)
inactive: alvocidib -0.066 | Tubastatin A -0.029 | [3] -0.039 | alisertib -0.143 | [4] 0.038 | gefitinib 0.272 | lapatinib 0.086 | pictilisib -0.016 | crizotinib -0.077 | [1] -0.533 | gandotinib 0.168 | doramapimod 0.075 | bafetinib -0.076 | [2] 0.137

DYRK1A isoform 2 (UniProt Q13627)
inactive: alvocidib 0.225 | Tubastatin A 0.023 | [3] 0.148 | pictilisib -0.166 | crizotinib -0.071 | [1] -0.171 | gandotinib 0.014 | doramapimod 0.092 | bafetinib 0.145 | [2] 0.034

DUSP14 (UniProt O95147)
inactive: alvocidib 0.022 | [3] 0.171 | defactinib 0.077 | [5] 0.1 | encorafenib 0.163 | [6] 0.061 | [4] 0.025 | lapatinib -0.029 | [1] -0.03 | duvelisib 0.079 | gandotinib -0.091 | tozasertib -0.087 | [2] -0.116

DSG3 (UniProt P32926)
inactive: alvocidib -0.098 | Tubastatin A 0.245 | pictilisib -0.162 | [1] -0.008 | gandotinib 0.11 | bafetinib 0.185 | [2] 0.232

DTWD2 (UniProt Q8NBA8)
inactive: alvocidib -0.03 | Tubastatin A -0.078 | [3] 0.026 | alisertib -0.025 | [4] 0.069 | gefitinib 0.082 | lapatinib -0.002 | pictilisib -0.042 | crizotinib 0.244 | [1] -0.026 | gandotinib 0.019 | doramapimod -0.08 | bafetinib -0.025 | [2] 0.118

DPM3 isoform 2 (UniProt Q9P2X0)
inactive: alvocidib 0.088 | Tubastatin A 0.046 | [3] 0.062 | alisertib 0.028 | [4] -0.053 | gefitinib -0.071 | lapatinib -0.028 | pictilisib 0 | crizotinib 0.025 | [1] 0.169 | gandotinib -0.053 | doramapimod -0.013 | bafetinib -0.111 | [2] 0.036

DYNC1I1 (UniProt O14576)
inactive: alvocidib 0.004 | [3] -0.03 | defactinib 0.062 | [5] 0.029 | encorafenib 0.05 | [6] -0.06 | [4] -0.03 | lapatinib 0.014 | [1] -0.291 | duvelisib 0.038 | gandotinib -0.161 | tozasertib 0.02 | [2] 0.215

EEF1D isoform 3 (UniProt P29692)
inactive: [3] 0.093 | [4] -0.049 | lapatinib -0.068 | pictilisib -0.366 | crizotinib 0.197 | doramapimod -0.151 | bafetinib -0.215

DRAM2 (UniProt Q6UX65)
inactive: alvocidib -0.003 | alisertib -0.034 | [4] 0.032 | gefitinib -0.037 | lapatinib 0.077 | pictilisib -0.088 | crizotinib -0.043 | [1] -0.085 | gandotinib 0.16 | doramapimod 0.044 | bafetinib 0.032 | [2] 0.166

DUT (UniProt H0YMP1)
inactive: [4] -0.021 | lapatinib -0.008 | pictilisib -0.065 | bafetinib -0.285

DTX2 (UniProt Q86UW9)
inactive: alvocidib 0.152 | [3] -0.004 | [5] 0.035 | alisertib 0.061 | [4] -0.093 | gefitinib 0.042 | lapatinib 0.05 | pictilisib -0.02 | crizotinib -0.098 | [1] 0.012 | duvelisib -0.166 | gandotinib -0.059 | doramapimod 0.186 | bafetinib 0.009 | [2] -0.039

DUSP13 isoform 4 (UniProt Q9UII6)
inactive: [3] -0.045

DZIP3 (UniProt Q86Y13)
inactive: [3] -0.137

DYNLT3 (UniProt P51808)
inactive: alvocidib 0.024 | [3] 0.073 | alisertib 0 | [4] 0.356 | gefitinib 0.068 | lapatinib -0.238 | crizotinib 0.068 | [1] -0.032 | gandotinib 0 | doramapimod -0.039 | [2] -0.012

DSTYK (UniProt Q6XUX3)
inactive: alvocidib -0.048 | Tubastatin A -0.237 | [3] 0.345 | alisertib -0.029 | gefitinib -0.017 | crizotinib -0.109 | [1] 0.087 | gandotinib -0.105 | doramapimod 0.013 | [2] 0.011

DYNC2LI1 (UniProt Q8TCX1)
inactive: alvocidib -0.022 | Tubastatin A 0.057 | defactinib -0.006 | [5] -0.016 | alisertib -0.049 | gefitinib 0.028 | pictilisib -0.002 | crizotinib -0.038 | [1] -0.057 | duvelisib 0.017 | gandotinib -0.002 | doramapimod 0.082 | bafetinib -0.083 | [2] -0.013

EEPD1 (UniProt Q7L9B9)
inactive: crizotinib -0.007 | doramapimod 0.068

ECM1 isoform 2 (UniProt Q16610)
inactive: Tubastatin A -0.054

Random excerpt: two records from the list, in no set order.
DYNLT3 (UniProt P51808)
inactive: alvocidib 0.024 | [3] 0.073 | alisertib 0 | [4] 0.356 | gefitinib 0.068 | lapatinib -0.238 | crizotinib 0.068 | [1] -0.032 | gandotinib 0 | doramapimod -0.039 | [2] -0.012

DUSP19 (UniProt Q8WTR2)
inactive: alvocidib -0.066 | Tubastatin A -0.029 | [3] -0.039 | alisertib -0.143 | [4] 0.038 | gefitinib 0.272 | lapatinib 0.086 | pictilisib -0.016 | crizotinib -0.077 | [1] -0.533 | gandotinib 0.168 | doramapimod 0.075 | bafetinib -0.076 | [2] 0.137

(listing goes on)

DPH3 (UniProt Q96FX2)
inactive: alvocidib -0.043 | defactinib -0.042 | [5] 0.142 | encorafenib -0.017 | [6] -0.151 | pictilisib -0.013 | crizotinib -0.041 | [1] -0.092 | duvelisib 0.029 | gandotinib -0.105 | tozasertib 0.025 | doramapimod -0.024 | bafetinib -0.04 | [2] -0.137

DPYSL3 isoform 2 (UniProt Q14195)
inactive: encorafenib -0.184 | [6] 0.208 | crizotinib 0.059 | tozasertib 0.015 | doramapimod 0

DSCAML1 (UniProt Q8TD84)
inactive: alvocidib -0.035 | Tubastatin A 0.03 | alisertib 0.084 | [4] 0.033 | gefitinib 0.039 | lapatinib -0.085 | pictilisib -0.059 | crizotinib -0.049 | [1] -0.093 | gandotinib 0.096 | doramapimod 0.035 | bafetinib -0.123 | [2] 0.013

DPF3 isoform 3 (UniProt Q92784)
inactive: alisertib 0.049 | gefitinib -0.057 | pictilisib 0.016 | bafetinib 0.102

EEF1AKMT1 (UniProt Q8WVE0)
inactive: Tubastatin A -0.259 | [3] -0.06 | [5] 0.119 | encorafenib -0.109 | [6] 0.011 | alisertib -0.052 | [4] 0.098 | gefitinib 0.13 | lapatinib -0.055 | pictilisib -0.046 | crizotinib -0.163 | duvelisib -0.047 | tozasertib 0.258 | doramapimod 0.028 | bafetinib -0.115

Reference: the supplement of paper PMC10849652
